These are yes or no findings as the source states them, for the method shown. In cells and extracts the contact can be indirect.
Target: STAT3 (UniProt P40763)
Assay: co-IP; cells, bait and conditions not told; shown in Supplementary Figure 5

Protein sequences, listed by entry. Tags and fused reporters are not part of them.
UniProt P40763: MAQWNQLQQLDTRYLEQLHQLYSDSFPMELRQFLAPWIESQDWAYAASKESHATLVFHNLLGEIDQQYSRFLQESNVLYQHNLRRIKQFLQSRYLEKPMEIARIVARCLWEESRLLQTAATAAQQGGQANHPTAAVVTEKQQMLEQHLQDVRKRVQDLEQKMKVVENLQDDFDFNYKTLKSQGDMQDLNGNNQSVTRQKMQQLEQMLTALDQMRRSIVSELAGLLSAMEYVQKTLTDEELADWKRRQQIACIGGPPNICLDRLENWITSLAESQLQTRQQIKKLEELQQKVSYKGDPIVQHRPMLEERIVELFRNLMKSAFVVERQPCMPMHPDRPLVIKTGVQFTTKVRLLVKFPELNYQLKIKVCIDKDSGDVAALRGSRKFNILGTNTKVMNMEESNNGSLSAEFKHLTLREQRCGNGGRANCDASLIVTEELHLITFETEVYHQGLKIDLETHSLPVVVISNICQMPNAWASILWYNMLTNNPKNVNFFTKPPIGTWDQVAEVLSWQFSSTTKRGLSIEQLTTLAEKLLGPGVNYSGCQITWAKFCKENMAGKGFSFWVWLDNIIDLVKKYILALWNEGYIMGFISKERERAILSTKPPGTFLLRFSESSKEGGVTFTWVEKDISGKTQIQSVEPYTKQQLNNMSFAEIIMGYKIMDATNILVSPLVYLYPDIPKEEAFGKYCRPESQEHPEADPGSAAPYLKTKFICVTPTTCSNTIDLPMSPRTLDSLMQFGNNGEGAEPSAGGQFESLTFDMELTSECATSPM

- binding: no binding
B1: Hepatocyte nuclear factor 3β (protein, UniProt Q9Y261 1-457)
chain: MLGAVKMEGHEPSDWSSYYAEPEGYSSVSNMNAGLGMNGMNTYMSMSAAAMGSGSGNMSAGSMNMSSYVGAGMSPSLAGMSPGAGAMAGMGGSAGAAGVAGMGPHLSPSLSPLGGQAAGAMGGLAPYANMNSMSPMYGQAGLSRARDPKTYRRSYTHAKPPYSYISLITMAIQQSPNKMLTLSEIYQWIMDLFPFYRQNQQRWQNSIRHSLSFNDCFLKVPRSPDKPGKGSFWTLHPDSGNMFENGCYLRRQKRFKCEKQLALKEAAGAAGSGKKAAAGAQASQAQLGEAAGPASETPAGTESPHSSASPCQEHKRGGLGELKGTPAAALSPPEPAPSPGQQQQAAAHLLGPPHHPGLPPEAHLKPEHHYAFNHPFSINNLMSSEQQHHHSHHHHQPHKMDLKAYEQVMHYPGYGSPMPGSLAMGPVTNKTGLDASPLAADTSYYQGVYSRPIMNSS

Reference: article PMC6817462
